According to the supplement of paper PMC12067093, “Discovery and optimisation of a covalent ligand for TRIM25 and its application to targeted protein ubiquitination” (Chemical Science, 2025):
The other results are listed elsewhere or left out.

Amino acid sequences for entries named in this document (tags omitted). A change or cut given only in a name is not applied to a line headed by its entry.
UniProt O75369, whole entry, looked up: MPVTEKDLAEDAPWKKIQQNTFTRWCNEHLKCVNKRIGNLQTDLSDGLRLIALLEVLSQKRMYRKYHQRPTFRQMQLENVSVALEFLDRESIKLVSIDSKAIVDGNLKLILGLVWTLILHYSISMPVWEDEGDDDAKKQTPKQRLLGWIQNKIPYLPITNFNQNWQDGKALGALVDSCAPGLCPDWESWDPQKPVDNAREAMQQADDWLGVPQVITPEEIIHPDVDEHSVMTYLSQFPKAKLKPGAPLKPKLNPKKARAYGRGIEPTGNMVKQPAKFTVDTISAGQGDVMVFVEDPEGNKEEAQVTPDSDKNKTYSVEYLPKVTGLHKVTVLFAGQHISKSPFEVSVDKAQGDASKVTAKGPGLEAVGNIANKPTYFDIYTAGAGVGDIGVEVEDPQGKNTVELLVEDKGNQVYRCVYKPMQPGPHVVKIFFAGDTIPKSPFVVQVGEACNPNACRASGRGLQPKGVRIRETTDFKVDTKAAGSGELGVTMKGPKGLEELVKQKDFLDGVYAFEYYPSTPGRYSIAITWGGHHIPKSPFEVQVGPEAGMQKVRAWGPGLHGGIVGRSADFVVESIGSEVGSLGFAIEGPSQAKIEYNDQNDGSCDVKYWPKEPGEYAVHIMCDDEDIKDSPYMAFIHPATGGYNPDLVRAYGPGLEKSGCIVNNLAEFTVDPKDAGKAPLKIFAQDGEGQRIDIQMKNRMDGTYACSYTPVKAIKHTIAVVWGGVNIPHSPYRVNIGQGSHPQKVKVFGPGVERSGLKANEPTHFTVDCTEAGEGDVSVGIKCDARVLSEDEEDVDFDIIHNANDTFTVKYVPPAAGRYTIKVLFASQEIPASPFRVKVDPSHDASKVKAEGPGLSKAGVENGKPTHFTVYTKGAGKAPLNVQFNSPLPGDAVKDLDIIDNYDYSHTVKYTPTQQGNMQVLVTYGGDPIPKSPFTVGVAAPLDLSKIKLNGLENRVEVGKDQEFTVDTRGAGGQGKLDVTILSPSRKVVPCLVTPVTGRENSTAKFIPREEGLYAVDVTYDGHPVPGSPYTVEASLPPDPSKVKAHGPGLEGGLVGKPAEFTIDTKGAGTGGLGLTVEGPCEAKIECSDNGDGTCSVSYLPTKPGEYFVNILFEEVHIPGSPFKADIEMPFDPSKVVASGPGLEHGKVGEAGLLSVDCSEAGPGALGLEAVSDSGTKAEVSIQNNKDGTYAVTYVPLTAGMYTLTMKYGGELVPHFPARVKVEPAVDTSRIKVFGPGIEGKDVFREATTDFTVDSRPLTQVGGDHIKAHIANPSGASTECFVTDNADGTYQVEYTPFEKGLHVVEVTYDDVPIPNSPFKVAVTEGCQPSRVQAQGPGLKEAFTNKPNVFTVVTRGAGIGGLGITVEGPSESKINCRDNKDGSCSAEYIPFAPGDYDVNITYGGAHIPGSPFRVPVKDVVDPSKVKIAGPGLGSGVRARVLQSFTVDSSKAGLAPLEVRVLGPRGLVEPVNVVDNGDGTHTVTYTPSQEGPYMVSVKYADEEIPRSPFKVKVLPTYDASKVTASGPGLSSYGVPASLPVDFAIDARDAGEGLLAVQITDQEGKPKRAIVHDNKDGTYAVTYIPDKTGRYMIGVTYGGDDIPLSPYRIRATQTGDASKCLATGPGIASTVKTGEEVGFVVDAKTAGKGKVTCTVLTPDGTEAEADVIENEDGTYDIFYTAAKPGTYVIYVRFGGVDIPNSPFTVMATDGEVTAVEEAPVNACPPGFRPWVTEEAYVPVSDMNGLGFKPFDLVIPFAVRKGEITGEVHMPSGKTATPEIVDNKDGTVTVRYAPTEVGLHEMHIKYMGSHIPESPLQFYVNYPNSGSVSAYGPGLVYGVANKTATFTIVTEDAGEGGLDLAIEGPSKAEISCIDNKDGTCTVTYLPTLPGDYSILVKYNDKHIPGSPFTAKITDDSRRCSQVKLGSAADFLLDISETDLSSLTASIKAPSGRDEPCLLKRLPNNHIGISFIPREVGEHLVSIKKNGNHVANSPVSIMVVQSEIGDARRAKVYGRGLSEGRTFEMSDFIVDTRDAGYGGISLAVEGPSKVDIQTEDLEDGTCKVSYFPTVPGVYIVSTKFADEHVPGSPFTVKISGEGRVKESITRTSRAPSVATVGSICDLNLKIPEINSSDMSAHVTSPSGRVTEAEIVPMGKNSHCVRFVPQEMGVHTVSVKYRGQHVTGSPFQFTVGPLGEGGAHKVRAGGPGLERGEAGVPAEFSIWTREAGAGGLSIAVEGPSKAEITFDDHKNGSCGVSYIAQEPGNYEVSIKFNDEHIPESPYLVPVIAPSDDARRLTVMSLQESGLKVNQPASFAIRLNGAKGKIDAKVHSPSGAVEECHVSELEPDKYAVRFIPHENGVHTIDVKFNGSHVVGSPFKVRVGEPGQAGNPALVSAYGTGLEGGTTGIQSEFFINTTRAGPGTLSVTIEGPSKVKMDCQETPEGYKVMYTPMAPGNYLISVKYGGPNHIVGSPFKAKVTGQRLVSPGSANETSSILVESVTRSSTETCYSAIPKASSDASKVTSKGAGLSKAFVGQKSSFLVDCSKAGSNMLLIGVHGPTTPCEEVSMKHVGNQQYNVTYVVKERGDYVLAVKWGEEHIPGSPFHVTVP
UniProt Q14192: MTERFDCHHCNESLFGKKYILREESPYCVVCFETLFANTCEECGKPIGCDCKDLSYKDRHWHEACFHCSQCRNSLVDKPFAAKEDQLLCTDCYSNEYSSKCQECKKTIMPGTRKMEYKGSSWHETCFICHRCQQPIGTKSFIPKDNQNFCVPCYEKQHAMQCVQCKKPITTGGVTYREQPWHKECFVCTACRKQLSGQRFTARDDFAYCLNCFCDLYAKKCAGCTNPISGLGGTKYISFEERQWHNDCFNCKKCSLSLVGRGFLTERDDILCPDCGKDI
UniProt Q13643: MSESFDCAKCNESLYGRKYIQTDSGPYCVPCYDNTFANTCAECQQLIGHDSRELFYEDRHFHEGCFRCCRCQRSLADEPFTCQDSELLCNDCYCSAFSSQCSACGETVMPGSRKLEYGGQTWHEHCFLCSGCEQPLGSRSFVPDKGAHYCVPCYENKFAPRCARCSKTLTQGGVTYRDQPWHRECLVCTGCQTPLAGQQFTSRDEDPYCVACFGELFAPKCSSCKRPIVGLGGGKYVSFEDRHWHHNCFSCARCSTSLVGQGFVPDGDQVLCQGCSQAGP
UniProt Q13045: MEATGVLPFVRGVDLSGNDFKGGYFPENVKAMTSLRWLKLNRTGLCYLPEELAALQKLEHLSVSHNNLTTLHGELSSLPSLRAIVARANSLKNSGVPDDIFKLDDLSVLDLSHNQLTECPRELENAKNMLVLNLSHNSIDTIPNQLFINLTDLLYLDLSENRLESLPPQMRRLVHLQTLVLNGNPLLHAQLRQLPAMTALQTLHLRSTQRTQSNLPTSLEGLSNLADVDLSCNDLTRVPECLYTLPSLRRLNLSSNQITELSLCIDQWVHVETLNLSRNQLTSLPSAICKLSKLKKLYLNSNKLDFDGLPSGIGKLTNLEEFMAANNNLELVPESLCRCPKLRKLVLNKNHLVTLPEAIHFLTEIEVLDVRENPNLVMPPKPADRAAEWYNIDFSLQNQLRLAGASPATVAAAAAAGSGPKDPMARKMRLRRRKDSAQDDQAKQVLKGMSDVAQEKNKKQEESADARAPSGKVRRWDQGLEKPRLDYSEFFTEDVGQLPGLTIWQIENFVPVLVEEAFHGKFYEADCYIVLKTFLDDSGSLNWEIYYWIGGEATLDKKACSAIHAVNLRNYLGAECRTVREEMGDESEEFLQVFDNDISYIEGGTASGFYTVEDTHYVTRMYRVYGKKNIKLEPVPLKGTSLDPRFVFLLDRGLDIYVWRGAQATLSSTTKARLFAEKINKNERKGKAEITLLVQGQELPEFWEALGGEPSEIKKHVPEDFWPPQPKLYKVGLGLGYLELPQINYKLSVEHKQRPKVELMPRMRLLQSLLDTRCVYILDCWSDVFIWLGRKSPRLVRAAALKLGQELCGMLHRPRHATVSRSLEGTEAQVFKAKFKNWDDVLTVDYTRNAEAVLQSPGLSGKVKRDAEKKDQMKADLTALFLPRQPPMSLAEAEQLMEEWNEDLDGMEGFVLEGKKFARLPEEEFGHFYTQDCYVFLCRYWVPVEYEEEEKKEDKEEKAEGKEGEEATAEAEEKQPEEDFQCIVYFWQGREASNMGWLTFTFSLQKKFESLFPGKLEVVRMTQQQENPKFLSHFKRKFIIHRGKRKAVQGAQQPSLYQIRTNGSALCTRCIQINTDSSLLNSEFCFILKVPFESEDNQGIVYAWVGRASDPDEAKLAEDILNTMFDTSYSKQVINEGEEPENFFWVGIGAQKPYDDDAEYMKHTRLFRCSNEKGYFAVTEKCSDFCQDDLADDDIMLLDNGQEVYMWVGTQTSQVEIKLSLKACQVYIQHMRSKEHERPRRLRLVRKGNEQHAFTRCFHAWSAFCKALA
UniProt Q13451: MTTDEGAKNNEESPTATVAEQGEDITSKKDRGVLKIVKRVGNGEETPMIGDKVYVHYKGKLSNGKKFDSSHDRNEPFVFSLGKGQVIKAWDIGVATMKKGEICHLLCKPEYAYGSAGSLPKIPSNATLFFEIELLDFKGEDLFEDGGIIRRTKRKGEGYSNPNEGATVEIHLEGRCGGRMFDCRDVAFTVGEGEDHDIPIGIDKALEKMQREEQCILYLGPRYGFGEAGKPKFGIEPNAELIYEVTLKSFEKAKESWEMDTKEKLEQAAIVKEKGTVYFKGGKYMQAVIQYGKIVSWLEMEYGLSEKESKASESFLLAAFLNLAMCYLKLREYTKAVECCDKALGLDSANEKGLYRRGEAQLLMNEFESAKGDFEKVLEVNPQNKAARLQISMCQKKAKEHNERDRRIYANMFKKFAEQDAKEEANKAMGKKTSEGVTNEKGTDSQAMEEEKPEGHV
UniProt P11413, whole entry, looked up: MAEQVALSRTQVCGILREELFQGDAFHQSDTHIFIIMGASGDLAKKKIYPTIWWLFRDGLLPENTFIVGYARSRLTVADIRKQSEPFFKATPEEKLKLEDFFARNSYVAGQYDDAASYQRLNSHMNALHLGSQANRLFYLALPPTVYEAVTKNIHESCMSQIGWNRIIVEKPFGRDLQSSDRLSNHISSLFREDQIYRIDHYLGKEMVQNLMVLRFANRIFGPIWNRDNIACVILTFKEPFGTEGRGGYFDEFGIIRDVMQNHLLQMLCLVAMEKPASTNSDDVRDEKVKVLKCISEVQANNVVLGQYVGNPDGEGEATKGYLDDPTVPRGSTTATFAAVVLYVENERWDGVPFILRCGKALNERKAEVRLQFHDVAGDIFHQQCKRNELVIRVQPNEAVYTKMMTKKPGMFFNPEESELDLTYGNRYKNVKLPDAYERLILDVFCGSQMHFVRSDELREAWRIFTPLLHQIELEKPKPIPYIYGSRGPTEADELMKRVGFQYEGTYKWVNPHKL
UniProt Q8NFF5: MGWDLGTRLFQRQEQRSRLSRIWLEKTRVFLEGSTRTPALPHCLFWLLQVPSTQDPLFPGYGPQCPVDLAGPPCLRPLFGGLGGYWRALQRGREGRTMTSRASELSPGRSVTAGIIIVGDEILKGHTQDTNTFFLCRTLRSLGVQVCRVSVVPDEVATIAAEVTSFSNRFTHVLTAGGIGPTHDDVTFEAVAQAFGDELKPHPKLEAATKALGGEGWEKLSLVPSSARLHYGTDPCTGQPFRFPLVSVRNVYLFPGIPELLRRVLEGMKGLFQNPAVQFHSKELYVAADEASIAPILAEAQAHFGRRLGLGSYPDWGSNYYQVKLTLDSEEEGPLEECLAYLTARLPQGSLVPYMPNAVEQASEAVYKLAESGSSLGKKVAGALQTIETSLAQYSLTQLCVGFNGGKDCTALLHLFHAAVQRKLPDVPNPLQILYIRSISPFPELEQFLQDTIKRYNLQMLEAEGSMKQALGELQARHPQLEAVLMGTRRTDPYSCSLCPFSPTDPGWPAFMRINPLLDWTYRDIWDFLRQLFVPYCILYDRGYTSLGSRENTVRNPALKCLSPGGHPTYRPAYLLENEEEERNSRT
UniProt P62942, whole entry, looked up: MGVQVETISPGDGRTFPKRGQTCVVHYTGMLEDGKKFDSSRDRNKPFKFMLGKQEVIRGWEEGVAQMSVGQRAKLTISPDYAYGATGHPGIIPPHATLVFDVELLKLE
UniProt Q14318: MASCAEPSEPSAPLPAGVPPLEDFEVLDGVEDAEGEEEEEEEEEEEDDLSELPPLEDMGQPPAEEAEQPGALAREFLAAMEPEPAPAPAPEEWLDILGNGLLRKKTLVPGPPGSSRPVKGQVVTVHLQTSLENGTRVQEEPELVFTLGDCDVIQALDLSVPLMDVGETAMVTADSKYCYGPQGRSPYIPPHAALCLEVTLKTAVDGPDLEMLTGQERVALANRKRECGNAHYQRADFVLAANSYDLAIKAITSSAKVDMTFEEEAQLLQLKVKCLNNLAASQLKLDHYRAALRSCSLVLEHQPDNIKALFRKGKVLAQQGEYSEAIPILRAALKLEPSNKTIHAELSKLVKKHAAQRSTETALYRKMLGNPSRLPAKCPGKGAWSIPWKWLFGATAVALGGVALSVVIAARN

Compound: CC1Cc2ccccc2N1C(=O)C1CCCN(C1)C(=O)CCl (mixture of isomers) [TRIM25 ligand 11 (diastereomer mixture)]
Experiment: probe-labelled cysteine peptide fold change vs DMSO (competition) (log2 fold change); higher = less target engagement (more negative = stronger competition)
Conditions: THP-1, incubation time: 4 h
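Also: competitive chemoproteomic profiling in live THP-1 cells with an iodoacetamide desthiobiotin (IA-DTB) probe, comparing probe-labelled peptide intensities in compound-treated cells against DMSO-treated controls.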

Target | probe-labelled cysteine peptide fold change (10 µM) | probe-labelled cysteine peptide fold change (50 µM)
FLNB_O75369_622_EPGEYAVHIMCDDEDIK (UniProt O75369) | 0.029 | -0.161
FLNB_O75369_450+455_SPFVVQVGEACNPNACR (UniProt O75369) | -0.148 | -0.038
FH_P07954_434_LLGDASVSFTENCVVGIQANTER (UniProt P07954) | -0.504 | -0.961
FLNB_O75369_1876_DGTCTVTYLPTLPGDYSILVK (UniProt O75369) | -0.167 | 0.0836
FLNB_O75369_2537_SSFLVDCSK (UniProt O75369) | -0.0792 | -0.0474
FN3KRP_Q9HA64_11_ELGCSSVR (UniProt Q9HA64) | -0.0658 | -0.015
FHL2_Q14192_224_CAGCTNPISGLGGTK (UniProt Q14192) | -0.000107 | 0.0367
FHL3_Q13643_251_HWHHNCFSCAR (UniProt Q13643) | 0.0923 | 0.139
FGGY_Q96C11_280_GHGLICEGQPVTSR (UniProt Q96C11) | 0.12 | -0.0295
FLNB_O75369_1952_DEPCLLK (UniProt O75369) | 0.159 | 0.216
FHOD1_Q9Y613_164_DLVPEFVHSEGLSCLIR (UniProt Q9Y613) | 0.152 | 0.203
FRMD8_Q9BZ67_191_VQLGPYQPGRPAACDLR (UniProt Q9BZ67) | -0.0885 | -0.1
FLNB_O75369_2333_VHSPSGAVEECHVSELEPDK (UniProt O75369) | 0.15 | -0.208
FXR1_P51114_129_CTVDVPEDLREACANENAHK (UniProt P51114) | -0.102 | -0.0151
FLII_Q13045_232_TQSNLPTSLEGLSNLADVDLSCNDLTR (UniProt Q13045) | -0.118 | -0.171
FNDC3B_Q53EP0_674_TLSIAPGQCRPPR (UniProt Q53EP0) | -0.00915 | -0.0543
FSCN1_Q16658_19_TANGTAEAVQIQFGLINCGNK (UniProt Q16658) | 0.0448 | 0.102
FKBP5_Q13451_103+107_KGEICHLLCKPEYAYGSAGSLPK (UniProt Q13451) | -0.0629 | -0.0494
FMNL3_Q8IVF7_469_CHLEPNVR (UniProt Q8IVF7) | 0.0632 | 0.114
FLCN_Q8NFG4_215_VFEAEQFGCPQR (UniProt Q8NFG4) | 0.0678 | -0.0835
G6PD_P11413_446_LILDVFCGSQMHFVR (UniProt P11413) | -0.0531 | 0.0353

Target | probe-labelled cysteine peptide fold change (10 µM) | probe-labelled cysteine peptide fold change (50 µM)
FN1_P02751_179_GEWTCKPIAEK (UniProt P02751) | 0.224 | -0.0449
FLAD1_Q8NFF5_409_DCTALLHLFHAAVQR (UniProt Q8NFF5) | -0.000326 | 0.348
FTSJ3_Q8IY81_52_ALLDLCAAPGGWLQVAAK (UniProt Q8IY81) | -0.282 | -0.0549
FRY_Q5TBA9_2494_CDMQILEER (UniProt Q5TBA9) | 0.00193 | -0.209
FRYL_O94915_1575_VMEHNQGEPLPFPPAGGCWSPLVDYVPETSSPGLPLHR (UniProt O94915) | 0.201 | 0.228
FKBP4_Q02790_328_LASHLNLAMCHLK (UniProt Q02790) | -0.0218 | 0.0219
FHL2_Q14192_275_GFLTERDDILCPDCGK (UniProt Q14192) | -0.0813 | -0.0756
FKBP1A_P62942_23_RGQTCVVHYTGMLEDGK (UniProt P62942) | -0.0307 | -0.173
FGD4_Q96M96_234_LDLLDQVFYCK (UniProt Q96M96) | -0.0315 | 0.174
FLAD1_Q8NFF5_338_LTLDSEEEGPLEECLAYLTAR (UniProt Q8NFF5) | 0.0204 | 0.352
FNBP1_Q96RU3_609_NEDEEGYVPTSYVEVCLDK (UniProt Q96RU3) | -0.117 | -0.0917
G6PD_P11413_385_LQFHDVAGDIFHQQCK (UniProt P11413) | 0.0035 | 0.0691
FUBP3_Q96I24_125_IQIASESSGIPERPCVLTGTPESIEQAK (UniProt Q96I24) | 0.000109 | 0.149
G6PD_P11413_385_LQFHDVAGDIFHQQCKR (UniProt P11413) | -0.408 | -0.258
FOXK1_P85037_665_VCEVGPK (UniProt P85037) | 0.0246 | -0.141
FOCAD_Q5VW36_758_IRPEIPIPEELDDDEDVEDVDLSVPGSCYLK (UniProt Q5VW36) | -0.0823 | -0.0223
FKBP8_Q14318_227_ECGNAHYQR (UniProt Q14318) | 0.252 | 0.173
FHL2_Q14192_254_CSLSLVGR (UniProt Q14192) | -0.0206 | 0.0367
FUS_P35637_444_NECNQCK (UniProt P35637) | -0.1 | -0.237
FLII_Q13045_576_NYLGAECR (UniProt Q13045) | 0.00174 | 0.107
